Results reported in patent US20120225180A1, “SALTINESS-IMPROVING AGENT FOR SALTY FOOD AND DRINK” (priority 2009, published 2012).

Assay: Saltiness evaluation of shiokara (comparison evaluation of flavor by 10 panelists)
Format: in vivo
Conditions: sedanenolide in an amount of 10 ppm
Method: Sedanenolide was added as a saltiness-improving agent (salty stimulation-reducing agent) of the present invention to commercially available salted squid to obtain shiokara containing sedanenolide at the concentrations shown in the following Table 1.
A: the number of panelists who felt stimulation of saltiness B: the number of panelists who slightly felt stimulation of saltiness N: the number of panelists who judged that the stimulation of saltiness was reduced to mild saltiness Flavor judgment: the number of panelists who judged it as most proper saltiness

## CCCC[C@@H]1OC(=O)C2=C1CCC=C2 [sedanenolide]
  aroma other than saltiness: a slight spicy aroma other than saltiness was also felt
